# These are yes or no findings as the source states them, for the method shown. In cells and extracts the contact can be indirect. These calls come from enrichment with a bait or labelling near it, and not all partners need be listed.
# Target: Halo-PERP (PERP fused to an N-terminal HaloTag) (UniProt Q96FX8)
# Assay: affinity purification with mass spectrometry; HaloTag Mammalian Pull-Down System; 2 mg Mel202 lysate (HaloTag or Halo-PERP, 24 h post-transfection) on HaloLink resin at 4 °C overnight; five washes in TBS with 0.05% IGEPAL CA-360; elution by ProTEV, then SDS; three independent experiments
substance,measurement,value
"SERCA2b (sarco/endoplasmic reticulum ATPase 2, isoform b) (from UniProt P16615-1 1-1042)",binding,binds
